Source: PubChem BioAssay AID504749 (NCATS, 2011).

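A panel of P. falciparum strains inside erythrocytes is exposed to compounds for three days, then a DNA-binding dye reports the amount of parasite DNA. Each compound was titrated across a series from about 0.000037 to 29 µM. The number is the fitted AC50, the concentration giving a half-maximal change in signal; a lower value means higher potency, whether the curve shows a decrease or an increase. Calls follow the curve class and fit quality: every row here is inconclusive, covering signal-raising curves and weak, poorly fitted, partial or highest-dose-only inhibition curves.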

Values are in nM. Every entry below has the call inconclusive. These entries are mostly ones the record files as inconclusive; other results of the assay are not listed here. Potencies fitted to partial, single-point or poorly fitting curves are rough. Some entries filed as inconclusive have a full curve.

| Compound | tested on / at | potency (nM) | curve as filed |
|---|---|---|---|
| `C[C@]12C/C(=C/O)C(=O)C[C@@H]1CC[C@@H]1[C@@H]2CC[C@@]2(C)[C@H]1CC[C@]2(C)O` | ICS | 11220 | inhibitor, single point |
| `C[C@]12C/C(=C/O)C(=O)C[C@@H]1CC[C@@H]1[C@@H]2CC[C@@]2(C)[C@H]1CC[C@]2(C)O` | CP291 | 13459 | inhibitor, single point |
| `CC[C@H]1OC(=O)[C@H](C)[C@@H](O[C@H]2C[C@@](C)(OC)[C@@H](O)[C@H](C)O2)[C@H](C)[C@@H](O[C@@H]2O[C@H](C)C[C@H](N(C)C)[C@H]2O)[C@](C)(O)C[C@@H](C)CN(C)[C@H](C)[C@@H](O)[C@]1(C)O` | CP315 | 1346 | inhibitor, full curve |
| `CC[C@H]1OC(=O)[C@H](C)[C@@H](O[C@H]2C[C@@](C)(OC)[C@@H](O)[C@H](C)O2)[C@H](C)[C@@H](O[C@@H]2O[C@H](C)C[C@H](N(C)C)[C@H]2O)[C@](C)(O)C[C@@H](C)CN(C)[C@H](C)[C@@H](O)[C@]1(C)O` | CP262 | 151 | inhibitor, full curve |
| `CC[C@H]1OC(=O)[C@H](C)[C@@H](O[C@H]2C[C@@](C)(OC)[C@@H](O)[C@H](C)O2)[C@H](C)[C@@H](O[C@@H]2O[C@H](C)C[C@H](N(C)C)[C@H]2O)[C@](C)(O)C[C@@H](C)CN(C)[C@H](C)[C@@H](O)[C@]1(C)O` | CP260 | 4467 | inhibitor, partial curve |
| `CC[C@H]1OC(=O)[C@H](C)[C@@H](O[C@H]2C[C@@](C)(OC)[C@@H](O)[C@H](C)O2)[C@H](C)[C@@H](O[C@@H]2O[C@H](C)C[C@H](N(C)C)[C@H]2O)[C@](C)(O)C[C@@H](C)CN(C)[C@H](C)[C@@H](O)[C@]1(C)O` | ECU | 5623 | inhibitor, partial curve |
| `CC[C@H]1OC(=O)[C@H](C)[C@@H](O[C@H]2C[C@@](C)(OC)[C@@H](O)[C@H](C)O2)[C@H](C)[C@@H](O[C@@H]2O[C@H](C)C[C@H](N(C)C)[C@H]2O)[C@](C)(O)C[C@@H](C)CN(C)[C@H](C)[C@@H](O)[C@]1(C)O` | DIV17 | 19011 | inhibitor, single point |
| `CC[C@H]1OC(=O)[C@H](C)[C@@H](O[C@H]2C[C@@](C)(OC)[C@@H](O)[C@H](C)O2)[C@H](C)[C@@H](O[C@@H]2O[C@H](C)C[C@H](N(C)C)[C@H]2O)[C@](C)(O)C[C@@H](C)CN(C)[C@H](C)[C@@H](O)[C@]1(C)O` | PAD | 7943 | inhibitor, partial curve |
| `CC[C@H]1OC(=O)[C@H](C)[C@@H](O[C@H]2C[C@@](C)(OC)[C@@H](O)[C@H](C)O2)[C@H](C)[C@@H](O[C@@H]2O[C@H](C)C[C@H](N(C)C)[C@H]2O)[C@](C)(O)C[C@@H](C)CN(C)[C@H](C)[C@@H](O)[C@]1(C)O` | CP305 | 2686 | inhibitor, partial curve |
| `CC[C@H]1OC(=O)[C@H](C)[C@@H](O[C@H]2C[C@@](C)(OC)[C@@H](O)[C@H](C)O2)[C@H](C)[C@@H](O[C@@H]2O[C@H](C)C[C@H](N(C)C)[C@H]2O)[C@](C)(O)C[C@@H](C)CN(C)[C@H](C)[C@@H](O)[C@]1(C)O` | SC27B | 12589 | inhibitor, partial curve |
| `CC[C@H]1OC(=O)[C@H](C)[C@@H](O[C@H]2C[C@@](C)(OC)[C@@H](O)[C@H](C)O2)[C@H](C)[C@@H](O[C@@H]2O[C@H](C)C[C@H](N(C)C)[C@H]2O)[C@](C)(O)C[C@@H](C)CN(C)[C@H](C)[C@@H](O)[C@]1(C)O` | P93_24 | 4467 | inhibitor, partial curve |
| `CC[C@H]1OC(=O)[C@H](C)[C@@H](O[C@H]2C[C@@](C)(OC)[C@@H](O)[C@H](C)O2)[C@H](C)[C@@H](O[C@@H]2O[C@H](C)C[C@H](N(C)C)[C@H]2O)[C@](C)(O)C[C@@H](C)CN(C)[C@H](C)[C@@H](O)[C@]1(C)O` | CP329 | 1346 | inhibitor, partial curve |
| `CC[C@H]1OC(=O)[C@H](C)[C@@H](O[C@H]2C[C@@](C)(OC)[C@@H](O)[C@H](C)O2)[C@H](C)[C@@H](O[C@@H]2O[C@H](C)C[C@H](N(C)C)[C@H]2O)[C@](C)(O)C[C@@H](C)CN(C)[C@H](C)[C@@H](O)[C@]1(C)O` | HB3 | 12589 | inhibitor, partial curve |
| `CC[C@H]1OC(=O)[C@H](C)[C@@H](O[C@H]2C[C@@](C)(OC)[C@@H](O)[C@H](C)O2)[C@H](C)[C@@H](O[C@@H]2O[C@H](C)C[C@H](N(C)C)[C@H]2O)[C@](C)(O)C[C@@H](C)CN(C)[C@H](C)[C@@H](O)[C@]1(C)O` | ICS | 1259 | inhibitor, partial curve, poor fit |
| `CC[C@H]1OC(=O)[C@H](C)[C@@H](O[C@H]2C[C@@](C)(OC)[C@@H](O)[C@H](C)O2)[C@H](C)[C@@H](O[C@@H]2O[C@H](C)C[C@H](N(C)C)[C@H]2O)[C@](C)(O)C[C@@H](C)CN(C)[C@H](C)[C@@H](O)[C@]1(C)O` | CP291 | 2686 | inhibitor, partial curve |
| `CC[C@H]1OC(=O)[C@H](C)[C@@H](O[C@H]2C[C@@](C)(OC)[C@@H](O)[C@H](C)O2)[C@H](C)[C@@H](O[C@@H]2O[C@H](C)C[C@H](N(C)C)[C@H]2O)[C@](C)(O)C[C@@H](C)CN(C)[C@H](C)[C@@H](O)[C@]1(C)O` | DIV30 | 601.2 | inhibitor, partial curve |
| `CC[C@H]1OC(=O)[C@H](C)[C@@H](O[C@H]2C[C@@](C)(OC)[C@@H](O)[C@H](C)O2)[C@H](C)[C@@H](O[C@@H]2O[C@H](C)C[C@H](N(C)C)[C@H]2O)[C@](C)(O)C[C@@H](C)CN(C)[C@H](C)[C@@H](O)[C@]1(C)O` | CP325 | 2393 | inhibitor, partial curve |
| `CC[C@H]1OC(=O)[C@H](C)[C@@H](O[C@H]2C[C@@](C)(OC)[C@@H](O)[C@H](C)O2)[C@H](C)[C@@H](O[C@@H]2O[C@H](C)C[C@H](N(C)C)[C@H]2O)[C@](C)(O)C[C@@H](C)CN(C)[C@H](C)[C@@H](O)[C@]1(C)O` | PC15 | 15848 | inhibitor, single point |
| `CC[C@H]1OC(=O)[C@H](C)[C@@H](O[C@H]2C[C@@](C)(OC)[C@@H](O)[C@H](C)O2)[C@H](C)[C@@H](O[C@@H]2O[C@H](C)C[C@H](N(C)C)[C@H]2O)[C@](C)(O)C[C@@H](C)CN(C)[C@H](C)[C@@H](O)[C@]1(C)O` | DIV14 | 10690 | inhibitor, partial curve |
| `CC[C@H]1OC(=O)[C@H](C)[C@@H](O[C@H]2C[C@@](C)(OC)[C@@H](O)[C@H](C)O2)[C@H](C)[C@@H](O[C@@H]2O[C@H](C)C[C@H](N(C)C)[C@H]2O)[C@](C)(O)C[C@@H](C)CN(C)[C@H](C)[C@@H](O)[C@]1(C)O` | CP268 | 1200 | inhibitor, partial curve |
| `CC[C@H]1OC(=O)[C@H](C)[C@@H](O[C@H]2C[C@@](C)(OC)[C@@H](O)[C@H](C)O2)[C@H](C)[C@@H](O[C@@H]2O[C@H](C)C[C@H](N(C)C)[C@H]2O)[C@](C)(O)C[C@@H](C)CN(C)[C@H](C)[C@@H](O)[C@]1(C)O` | CP266 | 12 | inhibitor, full curve, poor fit |
| `COc1ccc(CCN(C)CCCC(C#N)(c2ccc(OC)c(OC)c2)C(C)C)cc1OC` (centres unmarked) | AA1029 | 3162 | inhibitor, single point |
| `COc1ccc(CCN(C)CCCC(C#N)(c2ccc(OC)c(OC)c2)C(C)C)cc1OC` (centres unmarked) | CP335 | 4256 | inhibitor, single point |
| `COc1ccc(CCN(C)CCCC(C#N)(c2ccc(OC)c(OC)c2)C(C)C)cc1OC` (centres unmarked) | CP305 | 1694 | inhibitor, single point |
| `COc1ccc(CCN(C)CCCC(C#N)(c2ccc(OC)c(OC)c2)C(C)C)cc1OC` (centres unmarked) | TAB109 | 2239 | inhibitor, single point |
| `COc1ccc(CCN(C)CCCC(C#N)(c2ccc(OC)c(OC)c2)C(C)C)cc1OC` (centres unmarked) | CP269 | 1901 | inhibitor, single point |
| `COc1ccc(CCN(C)CCCC(C#N)(c2ccc(OC)c(OC)c2)C(C)C)cc1OC` (centres unmarked) | CP215 | 15101 | inhibitor, single point |
| `COc1ccc(CCN(C)CCCC(C#N)(c2ccc(OC)c(OC)c2)C(C)C)cc1OC` (centres unmarked) | CP291 | 2133 | inhibitor, partial curve, poor fit |
| `COc1ccc(CCN(C)CCCC(C#N)(c2ccc(OC)c(OC)c2)C(C)C)cc1OC` (centres unmarked) | DIV17 | 477.5 | inhibitor, full curve |

Some entries from above, unchanged:

{"compound": "COc1ccc(CCN(C)CCCC(C#N)(c2ccc(OC)c(OC)c2)C(C)C)cc1OC", "stereo": "centres unmarked", "tested on / at": "CP269", "potency (nM)": "1901", "curve as filed": "inhibitor, single point"}
{"compound": "COc1ccc(CCN(C)CCCC(C#N)(c2ccc(OC)c(OC)c2)C(C)C)cc1OC", "stereo": "centres unmarked", "tested on / at": "CP291", "potency (nM)": "2133", "curve as filed": "inhibitor, partial curve, poor fit"}